Measured values as given in PubChem BioAssay AID588590 (National Center for Advancing Translational Sciences (NCATS), 2011).
Screen size: about 390,000 compounds; about 4,000 (1%) were called active. The inconclusive results got no clear call from the source; some entries with a clear call stand among them for comparison. Calls follow the shape of the dose curve; as a rule, active = well fitted inhibition curve with a large enough effect; inconclusive = small, poorly fitted or top-dose-only effect, or another doubt; inactive = no such curve, though single readings can be large or run the other way. Potencies beside an inconclusive call are fits to weak or partial responses and may not hold up.

By UniProt entry, the sequences of proteins in these tests, tags left out. Where a name states a change or a piece, a line headed by the entry shows the natural chain unless it says otherwise.
UniProt Q9UNA4: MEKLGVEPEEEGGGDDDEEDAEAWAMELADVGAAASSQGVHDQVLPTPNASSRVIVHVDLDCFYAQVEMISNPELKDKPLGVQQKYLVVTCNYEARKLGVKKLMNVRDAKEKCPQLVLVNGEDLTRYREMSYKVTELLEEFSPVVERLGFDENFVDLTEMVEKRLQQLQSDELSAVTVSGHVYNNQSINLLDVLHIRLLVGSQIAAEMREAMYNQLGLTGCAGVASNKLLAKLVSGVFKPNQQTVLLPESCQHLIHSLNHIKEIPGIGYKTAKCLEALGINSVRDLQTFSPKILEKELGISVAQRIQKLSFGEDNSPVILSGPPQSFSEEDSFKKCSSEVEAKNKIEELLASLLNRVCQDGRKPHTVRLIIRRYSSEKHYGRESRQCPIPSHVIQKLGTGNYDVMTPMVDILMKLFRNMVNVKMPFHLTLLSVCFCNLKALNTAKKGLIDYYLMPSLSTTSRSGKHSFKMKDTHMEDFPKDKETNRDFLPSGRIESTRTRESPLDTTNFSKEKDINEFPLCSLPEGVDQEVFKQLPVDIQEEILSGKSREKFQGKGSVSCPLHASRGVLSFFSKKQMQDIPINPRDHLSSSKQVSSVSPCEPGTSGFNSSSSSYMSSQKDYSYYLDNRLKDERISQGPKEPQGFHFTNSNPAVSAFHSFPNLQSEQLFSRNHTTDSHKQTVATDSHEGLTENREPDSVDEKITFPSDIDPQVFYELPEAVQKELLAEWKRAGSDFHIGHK

target: DNA polymerase iota (Homo sapiens) (UniProt Q9UNA4); test: qHTS for Inhibitors of Polymerase Iota; conditions: Pol iota fluorescent replication assay, 10 min; series mostly up to 115 µM; activity, negative = inhibition: at the top concentration
Summary of the method: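 Fluorescent replication assay read twice, at 0 min and 10 min after adding 50 nM (final) substrate. Enzyme (10 nM) and compounds were first incubated 15 min at room temperature; enzyme-free buffer wells were negative controls.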
Potency is read from the fitted curve at half-maximal effect.

Structure (SMILES)	activity, negative = inhibition	Potency
C/C=C(/C)C(=O)Nc1cccc(C2=NOC3(C2)C[C@H](C(N)=O)N(C(=O)Cc2ccc([N+](=O)[O-])cc2)C3)c1 (some centres undefined)	inactive: -3.94%	
O=C(NCc1cccnc1)C1CC(c2ccc(Cl)c(Cl)c2)=NO1 (centres undefined)		inconclusive: 89.1 µM [inhibitor, partial curve, poor fit]
COc1ccc2c(-c3ccccc3)cc(SCC(=O)N(C)C3CCS(=O)(=O)C3)nc2c1 (centres undefined)		inconclusive: 39.8 µM [inhibitor, single point]
CC1(C)CC(=O)C(C=NCCN2CCN(CC(=O)Nc3ccc(F)cc3)CC2)=C(O)C1		inconclusive: 28.2 µM [inhibitor, single point]
COc1ccccc1C(=O)Nc1c(C(=O)Nc2ccc(C)cc2)oc2ccccc12	inactive: 22.7%	
O=C(NCCCCc1ccccc1)C1CC(c2cc(C(F)(F)F)cc(C(F)(F)F)c2)=NO1 (centres undefined)	inactive: 1.84%	
COc1cc2c(NC3CCN(C)CC3)nc(N3CCCN(C)CC3)nc2cc1OCC1CCCNC1 (centres undefined)	inactive: -22.2%	
O=C(Nc1nc(=O)n(C(=O)C2CC2)s1)c1ccccc1		inconclusive: 31.6 µM [inhibitor, full curve]
COc1cc(CNCCSc2nnnn2C)ccc1OCc1c(F)cccc1Cl	inactive: -4.04%	
COc1ccc(NC(C)=O)cc1S(=O)(=O)Nc1ccccc1C(=O)NCCc1ccccc1		inconclusive: 50.1 µM [inhibitor, partial curve, poor fit]
COC(=O)c1c(-c2ccccc2Cl)noc1/C=C/N(C)C		inconclusive: 79.4 µM [inhibitor, single point]
NC(=O)c1ccsc1NC(=O)CSc1nncs1		inconclusive: 22.4 µM [inhibitor, full curve]
N#Cc1ccc2c(c1)nnn2-c1ccccc1	inactive: 55.4%	
Clc1cccc(-c2ccc(-c3nc4ccccn4c3NCc3ccccc3)cc2)c1		inconclusive: 31.6 µM [inhibitor, partial curve, poor fit]
CC(C)c1ccc(OCC(=O)Nc2cc(-c3nc4ncccc4o3)ccc2Cl)cc1	inactive: -2.71%	
COc1ccc(OC)c(C(C(=O)NC2CCCCC2)N(Cc2ccco2)C(=O)c2ccccn2)c1 (centres undefined)		inconclusive: 89.1 µM [inhibitor, partial curve, poor fit]
Cc1cccc(NC(=O)CN2C(=O)CCc3ccccc32)c1C		inconclusive: 89.1 µM [inhibitor, partial curve, poor fit]
O=C1C(=O)N(Cc2ccncc2)C(c2cccc(O)c2)/C1=C(\O)c1ccc2c(c1)OCCO2 (centres undefined)		inconclusive: 11.2 µM [inhibitor, partial curve, poor fit]
O=C1NC(=S)NC1=Cc1ccc(Cl)cc1Cl		inconclusive: 28.2 µM [inhibitor, partial curve, poor fit]
CC(C)C[C@@H](CNCC(=O)[C@H](Cc1ccccc1)NC(=O)c1[nH]cnc1C(=O)N[C@H](CN)CC(C)C)NC(=O)c1nc[nH]c1C(=O)N[C@@H](CC(=O)O)C(=O)O		inconclusive: 15.8 µM [inhibitor, full curve, poor fit]
O=C(NCc1ccco1)c1cc(-c2ccc(F)cc2)on1		inconclusive: 50.1 µM [inhibitor, partial curve, poor fit]
N#Cc1ccccc1NC(=O)C(=O)NCC(c1cccnc1)N1CCN(c2ccccc2)CC1 (centres undefined)	inactive: 0.284%	

Structure (SMILES)	activity, negative = inhibition	Potency
CCOC1(OCC)C(c2ccc(Cl)cc2)C(C#N)(C#N)C1(OCC)OCC (centres undefined)		inconclusive: 39.8 µM [inhibitor, single point]
Cc1ccc(N=C2NC(=O)S/C2=C\c2ccco2)cc1		inconclusive: 44.7 µM [inhibitor, partial curve, poor fit]
O=C1Cc2cc(S(=O)(=O)N3CCCCC3)ccc2N1	inactive: 23.8%	
CC(=O)N1C(=O)C2(C(C#N)=C(N)Oc3n[nH]c(-c4ccccn4)c32)c2ccccc21 (centres undefined)		inconclusive: 31.6 µM [inhibitor, single point]
CC(=O)N1CCCc2cc(S(=O)(=O)NCc3ccc(OC(C)C)cc3)ccc21	inactive: 36.5%	
COc1ccc(-c2nn(-c3ccc(F)cc3F)c3c2cnc2ccc(F)cc23)cc1		inconclusive: 89.1 µM [inhibitor, partial curve, poor fit]
CCOC(=O)N1C2=NC(C(=O)OC)=C(C(=O)OC)[C@@H]3N(C)c4ccccc4[C@]23C[C@H]1C(=O)OC		inconclusive: 28.2 µM [inhibitor, partial curve]
COC(=O)c1cn(CCOc2ccccc2F)c2ccccc12	inactive: -0.173%	
Cc1cc(C(=O)CSc2nnc(-c3cccc(F)c3)n2N)c(C)n1Cc1ccc2c(c1)OCO2		inconclusive: 31.6 µM [inhibitor, single point]
CCOc1ccc(NC(=S)NNC(=S)Nc2cccc(C(F)(F)F)c2)cc1		inconclusive: 2.82 µM [inhibitor, partial curve, poor fit]
NS(=O)(=O)c1ccc(NC2=CC(=O)C(=O)c3ccccc32)cc1		inconclusive: 14.1 µM [inhibitor, full curve, poor fit]
CC(CCc1ccccc1)NCC(O)c1ccc(O)c(C(N)=O)c1 (centres undefined)		inconclusive: 56.2 µM [inhibitor, partial curve, poor fit]
COc1cccc(NC(=O)Cc2c(C(=O)O)[nH]c3ccccc23)c1		inconclusive: 79.4 µM [inhibitor, partial curve, poor fit]
CC(C)C1Nc2ccc(S(N)(=O)=O)cc2C2C=CCC21 (centres undefined)		inconclusive: 35.5 µM [inhibitor, partial curve, poor fit]
Cc1cc(S(=O)(=O)Nc2nc(CN3CCOCC3)nc3sc4c(c23)CCC4)cc(C)c1C		active: 25.1 µM
CC(C)(C)c1cc[n+](-c2[nH]c(=O)sc2/C=N/NC(=O)c2ccccc2[O-])cc1		inconclusive: 15.8 µM [inhibitor, partial curve, poor fit]
CCc1ccc(-n2nc(CO)c(C(=O)NCCCCc3ccccc3)n2)cc1	inactive: 23.2%	
O=Cc1cc(N=Nc2ccccc2Cl)ccc1O		inconclusive: 50.1 µM [inhibitor, single point]
CSc1nnc(SCc2nc3sc(C(=O)O)c(C)c3c(=O)[nH]2)s1		active: 3.98 µM
CN(Cc1cnn(C)c1)C(=O)C1CCC(=O)N(Cc2ccc(Cl)cc2)C1 (centres undefined)		inconclusive: 100 µM [inhibitor, single point]
Cc1cccc(C)c1NC(=O)CN(C)CC(=O)Nc1sc2c(c1C(N)=O)CCC2		inconclusive: 31.6 µM [inhibitor, single point]
CC1=NN(C(=O)c2ccc(Cn3nc(C)c(Br)c3C)cc2)C(O)(C(F)(F)F)C1 (centres undefined)	inactive: -0.396%	

Structure (SMILES)	activity, negative = inhibition	Potency
COC(=O)C(Cc1ccccc1)NC(=O)CCC(=O)NC(C)CCc1ccccc1 (centres undefined)	inactive: 14.7%	
CC1=NNC(=O)C1CCC(=O)N/N=C/c1ccccc1 (centres undefined)		inconclusive: 39.8 µM [inhibitor, partial curve, poor fit]
C=C(/C=C/c1ccc(N(C)C)cc1)c1nc2ccccc2s1		inconclusive: 44.7 µM [inhibitor, partial curve, poor fit]
COC(=O)CN(C)C(=O)CC1C(=O)NCCN1CC(C)(C)C (centres undefined)		inconclusive: 35.5 µM [inhibitor, single point]
Cc1onc(-c2c(Cl)cccc2Cl)c1C(=O)NC(C)(C)CO		inconclusive: 22.4 µM [inhibitor, partial curve, poor fit]
Cn1c(=O)c2ccccc2n2c(=S)[nH]nc12		inconclusive: 11.2 µM [inhibitor, partial curve, poor fit]
CC(/C=C1\SC(=S)N(CCCC(=O)Nc2ccc(C(=O)O)cc2)C1=O)=C\c1ccccc1		inconclusive: 22.4 µM [inhibitor, full curve]
Cc1cn(C2C=CC(CO)O2)c(=O)[nH]c1=O (centres undefined)		inconclusive: 28.2 µM [inhibitor, single point]
COc1ccc2ccc(O)c(CN3CCN(S(=O)(=O)c4cccc(C(F)(F)F)c4)CC3)c2c1		inconclusive: 79.4 µM [inhibitor, single point]
C=C1c2cccc(OC)c2O[C@H](C(=O)OCC)[C@@H]1CC(CC)CCCC (some centres undefined)		inconclusive: 25.1 µM [inhibitor, partial curve, poor fit]
CCOC(=O)c1cccc(NC(=O)Nc2cc(OC)ccc2OC)c1		inconclusive: 35.5 µM [inhibitor, single point]
O=C(O)Cn1nc(N2CCN(c3ccccc3)CC2)ccc1=O	inactive: 7.22%	
O=C(NCc1nc2ccccc2[nH]1)C1=C[C@H](c2csc3ccccc23)C[C@H](OCc2ccc(CO)cc2)O1		inconclusive: 39.8 µM [inhibitor, single point]
COCCn1cc(C(=O)NCCN(C)C)c2c3ccccc3n(C)c2c1=O		inconclusive: 70.8 µM [inhibitor, single point]
Nc1cccc(/C=C2\C=Cc3ccccc32)c1		inconclusive: 11.2 µM [inhibitor, partial curve, poor fit]
CC1CCC(NC(=O)CCc2cn(Cc3ccc(F)cc3)c3ccccc23)CC1 (centres undefined)	inactive: 13.1%	
O=C(Nc1ccccc1C(=O)O)c1cccc(NC(=O)c2ccccc2Br)c1	inactive: 10.3%	
Cc1onc(-c2c(F)cccc2Cl)c1C(=O)Nc1sc2c(c1C(N)=O)CCC2		inconclusive: 15.8 µM [inhibitor, full curve, poor fit]
COc1ccccc1-c1nc(C#N)c(N2CCc3ccccc3C2)o1		inconclusive: 50.1 µM [inhibitor, partial curve, poor fit]
CCOc1ccc(-c2csc(/C(C#N)=C\c3ccc(O)c([N+](=O)[O-])c3)n2)cc1		inconclusive: 28.2 µM [inhibitor, single point]

Arranged by count of non-hydrogen atoms (falling): part of the list above.
Structure (SMILES)	activity, negative = inhibition	Potency
O=C(NCc1nc2ccccc2[nH]1)C1=C[C@H](c2csc3ccccc23)C[C@H](OCc2ccc(CO)cc2)O1		inconclusive: 39.8 µM [inhibitor, single point]
COc1ccccc1-c1nc(C#N)c(N2CCc3ccccc3C2)o1		inconclusive: 50.1 µM [inhibitor, partial curve, poor fit]
COC(=O)CN(C)C(=O)CC1C(=O)NCCN1CC(C)(C)C (centres undefined)		inconclusive: 35.5 µM [inhibitor, single point]
CC1=NNC(=O)C1CCC(=O)N/N=C/c1ccccc1 (centres undefined)		inconclusive: 39.8 µM [inhibitor, partial curve, poor fit]
